The text below walks through data of patent US20160222124A1.

Experiment [1] concerns the target cynomolgus monkey CD40 (cynomolgus monkey) (UniProt G7PG38). The experiment in a line: flow cytometry, FITC-labeled antibody on cynomolgus platelets.
The target is the same in experiment [2]. The experiment can be described thus: flow cytometry, directly labeled antibody, B cells and platelets in cynomolgus monkey whole blood. (In general: In flow cytometry, cells or beads pass a laser one at a time.)

Results are given in words; binding and its absence hold for the method and conditions named. Some entries that bind do so weakly or less than the wild type.

B1: 2H11 (murine anti-CD40 antibody) (antibody, V domains shown)
VH: EVQLQQSGAELVRPGASVKLSCTASGFNIKDYYVHWVKQRPEKGLEWIGRIDPEDGDSKYAPKFQGKATMTADTSSNTAYLHLSSLTSEDTAVYYCTTSYYVGTYGYWGQGTTLTVSS
VL: QIVLTQSPAIMSASPGEKVTITCSASSSVSYMLWFQQKPGTSPKLWIYSTSNLASGVPARFGGSGSGTSYSLTISRMEAEDAATYYCQQRTFYPYTFGGGTKLEIK
Regarding B1, the binding result in experiment [1] is given as “binds”.

B2: Antibody B (antibody, V domains shown)
VH: EVQLVESGGGLVKPGGSLRLSCAASGFTFSDYGMHWVRQAPGKGLEWVAYISSGNRIIYYADTVKGRFTISRDNAKNSLYLQMNSLRAEDTAVYYCARQDGYRYAMDYWGQGTLVTVSS
VL: DIVMTQSPDSLAVSLGEKVTINCKSSQSLLNSGNQKNYLTWHQQKPGQPPKLLIYWTSTRESGVPDRFSGSGSGTDFTLTISSLQAEDVAVYYCQNDYTYPLTFGGGTKVEIKR
As for B2, the binding result in experiment [2] is recorded as “binds”.
